For two substances, conjugation yield, difficulty met and step yield results are on record in article PMC7554696 (International Journal of Molecular Sciences, 2020).

This data set in a line: general procedure: peptide synthesis; isobutyl chloroformate / TEA (mixed anhydride).

Strings that start with PEPTIDE1 are HELM notation: dots part the residues, brackets hold end groups and non-standard residues.

In the case of Fmoc–Leu–Ala–Gly–Gly–DOX, the conjugation yield (conjugation step) worked out at 75%.

As to PEPTIDE1{L.A.G.G.[DOX]}$$$$V2.0, where the note is “late stage modification step”, the difficulty met entry is “we obtained the desired product in a very poor yield” and the step yield is 61%.
